# The list shows a part of the results.
# Legend:
# Experiment in all cases: glycan array binding signal (z-score within array); higher = stronger binding
# Settings in all cases: glycan notation: IUPAC condensed, linker removed
# [1] = molecular target: Gal(b1-4)GlcNAc(b1-2)[Gal(b1-4)GlcNAc(b1-6)]Man(a1-6)[GlcNAc(b1-4)][Gal(b1-4)GlcNAc(b1-2)Man(a1-3)]Man(b1-4)GlcNAc(b1-4)GlcNAc
# How it was run: (§1)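 Columns mapping to the same glycan were averaged after glycan names were converted to IUPAC-condensed notation. The data come from 3228 arrays in the Consortium for Functional Glycomics database, limited to those with an available protein sequence. Binding is reported as a within-array Z-score averaged across arrays of one protein sequence and across linkers.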
# [2] = molecular target: Gal(b1-4)GlcNAc(b1-2)[Gal(b1-4)GlcNAc(b1-6)]Man(a1-6)[GlcNAc(b1-4)][Gal(b1-4)GlcNAc(b1-2)[Gal(b1-4)GlcNAc(b1-4)]Man(a1-3)]Man(b1-4)GlcNAc(b1-4)[Fuc(a1-6)]GlcNAc
# How it was run: as §1
# [3] = molecular target: Gal(b1-4)GlcNAc(b1-3)Gal(b1-3)GalNAc
# How it was run: as §1
# [4] = molecular target: Gal(b1-4)GlcNAc(b1-3)Gal(b1-3)GlcNAc
# How it was run: as §1
# [5] = molecular target: Gal(b1-4)GlcNAc(b1-3)Gal(b1-4)Glc
# How it was run: as §1
# [6] = molecular target: Gal(b1-4)GlcNAc(b1-3)Gal(b1-4)GlcNAc
# How it was run: as §1
# [7] = molecular target: Gal(b1-4)GlcNAc(b1-3)Gal(b1-4)GlcNAc(b1-2)Man(a1-3)[Gal(b1-4)GlcNAc(b1-3)Gal(b1-4)GlcNAc(b1-2)Man(a1-6)]Man(b1-4)GlcNAc(b1-4)GlcNAc
# How it was run: as §1
# [8] = molecular target: Gal(b1-4)GlcNAc(b1-3)Gal(b1-4)GlcNAc(b1-2)Man(a1-3)[Gal(b1-4)GlcNAc(b1-3)Gal(b1-4)GlcNAc(b1-2)Man(a1-6)]Man(b1-4)GlcNAc(b1-4)[Fuc(a1-6)]GlcNAc
# How it was run: as §1
# [9] = molecular target: Gal(b1-4)GlcNAc(b1-3)Gal(b1-4)GlcNAc(b1-2)[Gal(b1-4)GlcNAc(b1-3)Gal(b1-4)GlcNAc(b1-6)]Man(a1-6)[Gal(b1-4)GlcNAc(b1-3)Gal(b1-4)GlcNAc(b1-2)Man(a1-3)]Man(b1-4)GlcNAc(b1-4)GlcNAc
# How it was run: as §1
# [10] = molecular target: Gal(b1-4)GlcNAc(b1-3)Gal(b1-4)GlcNAc(b1-2)[Gal(b1-4)GlcNAc(b1-3)Gal(b1-4)GlcNAc(b1-6)]Man(a1-6)[Gal(b1-4)GlcNAc(b1-3)Gal(b1-4)GlcNAc(b1-2)Man(a1-3)]Man(b1-4)GlcNAc(b1-4)[Fuc(a1-6)]GlcNAc
# How it was run: as §1
# [11] = molecular target: Gal(b1-4)GlcNAc(b1-3)Gal(b1-4)GlcNAc(b1-3)Gal(b1-4)GlcNAc
# How it was run: as §1
# [12] = molecular target: Gal(b1-4)GlcNAc(b1-3)Gal(b1-4)GlcNAc(b1-3)Gal(b1-4)GlcNAc(b1-2)Man(a1-3)[Gal(b1-4)GlcNAc(b1-3)Gal(b1-4)GlcNAc(b1-3)Gal(b1-4)GlcNAc(b1-2)Man(a1-6)]Man(b1-4)GlcNAc(b1-4)GlcNAc
# How it was run: as §1
# [13] = molecular target: Gal(b1-4)GlcNAc(b1-3)Gal(b1-4)GlcNAc(b1-3)Gal(b1-4)GlcNAc(b1-2)Man(a1-3)[Gal(b1-4)GlcNAc(b1-3)Gal(b1-4)GlcNAc(b1-3)Gal(b1-4)GlcNAc(b1-2)Man(a1-6)]Man(b1-4)GlcNAc(b1-4)[Fuc(a1-6)]GlcNAc
# How it was run: as §1
# [14] = molecular target: Gal(b1-4)GlcNAc(b1-3)Gal(b1-4)GlcNAc(b1-3)Gal(b1-4)GlcNAc(b1-2)[Gal(b1-4)GlcNAc(b1-3)Gal(b1-4)GlcNAc(b1-3)Gal(b1-4)GlcNAc(b1-6)]Man(a1-6)[Gal(b1-4)GlcNAc(b1-3)Gal(b1-4)GlcNAc(b1-3)Gal(b1-4)GlcNAc(b1-2)Man(a1-3)]Man(b1-4)GlcNAc(b1-4)[Fuc(a1-6)]GlcNAc
# How it was run: as §1
# [15] = molecular target: Gal(b1-4)GlcNAc(b1-3)Gal(b1-4)GlcNAc(b1-3)Gal(b1-4)GlcNAc(b1-3)Gal(b1-4)GlcNAc(b1-2)Man(a1-3)[Gal(b1-4)GlcNAc(b1-3)Gal(b1-4)GlcNAc(b1-3)Gal(b1-4)GlcNAc(b1-3)Gal(b1-4)GlcNAc(b1-2)Man(a1-6)]Man(b1-4)GlcNAc(b1-4)GlcNAc
# How it was run: as §1
# [16] = molecular target: Gal(b1-4)GlcNAc(b1-3)Gal(b1-4)GlcNAc(b1-3)Gal(b1-4)GlcNAc(b1-3)Gal(b1-4)GlcNAc(b1-2)Man(a1-3)[Gal(b1-4)GlcNAc(b1-3)Gal(b1-4)GlcNAc(b1-3)Gal(b1-4)GlcNAc(b1-3)Gal(b1-4)GlcNAc(b1-2)Man(a1-6)]Man(b1-4)GlcNAc(b1-4)[Fuc(a1-6)]GlcNAc
# How it was run: as §1
# [17] = molecular target: Gal(b1-4)GlcNAc(b1-3)Gal(b1-4)GlcNAc(b1-3)Gal(b1-4)GlcNAc(b1-3)Gal(b1-4)GlcNAc(b1-2)[Gal(b1-4)GlcNAc(b1-3)Gal(b1-4)GlcNAc(b1-3)Gal(b1-4)GlcNAc(b1-3)Gal(b1-4)GlcNAc(b1-6)]Man(a1-6)[Gal(b1-4)GlcNAc(b1-3)Gal(b1-4)GlcNAc(b1-3)Gal(b1-4)GlcNAc(b1-3)Gal(b1-4)GlcNAc(b1-2)Man(a1-3)]Man(b1-4)GlcNAc(b1-4)[Fuc(a1-6)]GlcNAc
# How it was run: as §1
# [18] = molecular target: Gal(b1-4)GlcNAc(b1-3)Gal(b1-4)GlcNAc(b1-3)Gal(b1-4)GlcNAc(b1-3)Gal(b1-4)GlcNAc(b1-3)Gal(b1-4)GlcNAc(b1-2)Man(a1-3)[Gal(b1-4)GlcNAc(b1-3)Gal(b1-4)GlcNAc(b1-3)Gal(b1-4)GlcNAc(b1-3)Gal(b1-4)GlcNAc(b1-3)Gal(b1-4)GlcNAc(b1-2)Man(a1-6)]Man(b1-4)GlcNAc(b1-4)GlcNAc
# How it was run: as §1
# [19] = molecular target: Gal(b1-4)GlcNAc(b1-3)Gal(b1-4)GlcNAc(b1-3)Gal(b1-4)GlcNAc(b1-3)Gal(b1-4)GlcNAc(b1-3)Gal(b1-4)GlcNAc(b1-2)Man(a1-3)[Gal(b1-4)GlcNAc(b1-3)Gal(b1-4)GlcNAc(b1-3)Gal(b1-4)GlcNAc(b1-3)Gal(b1-4)GlcNAc(b1-3)Gal(b1-4)GlcNAc(b1-2)Man(a1-6)]Man(b1-4)GlcNAc(b1-4)[Fuc(a1-6)]GlcNAc
# How it was run: as §1
# [20] = molecular target: Gal(b1-4)GlcNAc(b1-3)Gal(b1-4)GlcNAc(b1-3)Gal(b1-4)GlcNAc(b1-3)Gal(b1-4)GlcNAc(b1-3)Gal(b1-4)GlcNAc(b1-2)[Gal(b1-4)GlcNAc(b1-3)Gal(b1-4)GlcNAc(b1-3)Gal(b1-4)GlcNAc(b1-3)Gal(b1-4)GlcNAc(b1-3)Gal(b1-4)GlcNAc(b1-6)]Man(a1-6)[Gal(b1-4)GlcNAc(b1-3)Gal(b1-4)GlcNAc(b1-3)Gal(b1-4)GlcNAc(b1-3)Gal(b1-4)GlcNAc(b1-3)Gal(b1-4)GlcNAc(b1-2)Man(a1-3)]Man(b1-4)GlcNAc(b1-4)[Fuc(a1-6)]GlcNAc
# How it was run: as §1
# [21] = molecular target: Gal(b1-4)GlcNAc(b1-3)Gal(b1-4)GlcNAc(b1-3)Gal(b1-4)GlcNAc(b1-3)Gal(b1-4)GlcNAc(b1-3)Gal(b1-4)GlcNAc(b1-3)Gal(b1-4)GlcNAc(b1-2)Man(a1-3)[Gal(b1-4)GlcNAc(b1-3)Gal(b1-4)GlcNAc(b1-3)Gal(b1-4)GlcNAc(b1-3)Gal(b1-4)GlcNAc(b1-3)Gal(b1-4)GlcNAc(b1-3)Gal(b1-4)GlcNAc(b1-2)Man(a1-6)]Man(b1-4)GlcNAc(b1-4)GlcNAc
# How it was run: as §1
# [22] = molecular target: Gal(b1-4)GlcNAc(b1-3)Gal(b1-4)GlcNAc(b1-3)GalNAc
# How it was run: as §1
# [23] = molecular target: Gal(b1-4)GlcNAc(b1-3)Gal(b1-4)GlcNAc(b1-3)[Gal(b1-4)GlcNAc(b1-3)Gal(b1-4)GlcNAc(b1-6)]GalNAc
# How it was run: as §1
# [24] = molecular target: Gal(b1-4)GlcNAc(b1-3)Gal(b1-4)GlcNAc(b1-6)[Gal(b1-3)]GalNAc
# How it was run: as §1
# [25] = molecular target: Gal(b1-4)GlcNAc(b1-3)Gal(b1-4)[Fuc(a1-3)]GlcNAc(b1-3)Gal(b1-4)[Fuc(a1-3)]GlcNAc
# How it was run: as §1
# [26] = molecular target: Gal(b1-4)GlcNAc(b1-3)GalNAc
# How it was run: as §1
# [27] = molecular target: Gal(b1-4)GlcNAc(b1-3)[Fuc(a1-3)GlcNAc(b1-6)]Gal(b1-4)Glc
# How it was run: as §1
# [28] = molecular target: Gal(b1-4)GlcNAc(b1-3)[Gal(b1-4)GlcNAc(b1-6)]Gal(b1-4)GlcNAc
# How it was run: as §1
# [29] = molecular target: Gal(b1-4)GlcNAc(b1-3)[GlcNAc(b1-6)]Gal(b1-4)GlcNAc
# How it was run: as §1
# [30] = molecular target: Gal(b1-4)GlcNAc(b1-6)Gal(b1-4)GlcNAc
# How it was run: as §1
# [31] = molecular target: Gal(b1-4)GlcNAc(b1-6)GalNAc
# How it was run: as §1
# [32] = molecular target: Gal(b1-4)GlcNAc(b1-6)[Gal(b1-3)]GalNAc
# How it was run: as §1
# [33] = molecular target: Gal(b1-4)GlcNAc(b1-6)[Gal(b1-4)GlcNAc(b1-3)]GalNAc
# How it was run: as §1
# Gal(b1-4)GlcNAc6P = molecular target: Gal(b1-4)GlcNAc6P
# How it was run: as §1
# Gal(b1-6)Gal = molecular target: Gal(b1-6)Gal
# How it was run: as §1
# Gal3S(b1-3)GalNAc = molecular target: Gal3S(b1-3)GalNAc
# How it was run: as §1
# Gal3S(b1-3)GlcNAc = molecular target: Gal3S(b1-3)GlcNAc
# How it was run: as §1
# [34] = molecular target: Gal3S(b1-3)[Fuc(a1-4)]GlcNAc
# How it was run: as §1
binder,measurement,setting,value
GS7807Q-bfa-507-19-507 (Bacteroides fragilis) (protein) ASCNKFDDLNTNPDAATKVTAPMLATKLILNITQQGSAKNFVYHSMLSKQIAWSENASDEQYNLFGRTDFDGYTILTNCQKMVDAANEGDKDSYAALAKFMKAYKLFYKSLEVGDIPYSDALKGEEGVQKPKYDTQKEVMRQVLEDLEEAYTLFSSGSDFDGDPIFGGDTENWKKTVVAFELKVLTHLCKKDTDADLKVKERFARLVSSGSLMTSNADNFQLVYSNKAGQLYPFYYTQNKHSDYLMMSSVIIDNLKKFNDYRMFYYASPAKAQTDKGIKDSEWDAYLSIDPSDSYSNISVLYGKGEFCLANLRYTRVPEGEPLMRLSYAEQNFILAEGAVRGWISEDASTYYKKGIEASMNFIADNTPDKEEYTHGRTITQEYIQEYLAQPVIQLSGDKEKDLEMILLQRYLASFLQHPYDAYYDYRRTGYPVLPINPSTNLNTEKNKIPTRWMYPEAEFSYNPDNANEAVQRQYNGSDDVNKLMWILQ,glycan array binding signal (z-score),[1],0.995
same,glycan array binding signal (z-score),[2],-0.993
same,glycan array binding signal (z-score),[3],-0.405
same,glycan array binding signal (z-score),[4],-0.951
same,glycan array binding signal (z-score),[5],-0.734
same,glycan array binding signal (z-score),[6],-1.12
same,glycan array binding signal (z-score),[7],3.08
same,glycan array binding signal (z-score),[8],0.335
same,glycan array binding signal (z-score),[9],0.112
same,glycan array binding signal (z-score),[10],-0.21
same,glycan array binding signal (z-score),[11],0.693
same,glycan array binding signal (z-score),[12],2.7
same,glycan array binding signal (z-score),[13],1.56
same,glycan array binding signal (z-score),[14],2.07
same,glycan array binding signal (z-score),[15],-0.356
same,glycan array binding signal (z-score),[16],1.2
same,glycan array binding signal (z-score),[17],1.33
same,glycan array binding signal (z-score),[18],-0.15
same,glycan array binding signal (z-score),[19],2.35
same,glycan array binding signal (z-score),[20],0.164
same,glycan array binding signal (z-score),[21],-0.371
same,glycan array binding signal (z-score),[22],-0.268
same,glycan array binding signal (z-score),[23],-0.074
same,glycan array binding signal (z-score),[24],0.121
same,glycan array binding signal (z-score),[25],-0.174
same,glycan array binding signal (z-score),[26],-1.35
same,glycan array binding signal (z-score),[27],-0.659
same,glycan array binding signal (z-score),[28],-0.507
same,glycan array binding signal (z-score),[29],-0.795
same,glycan array binding signal (z-score),[30],-0.977
same,glycan array binding signal (z-score),[31],1.31
same,glycan array binding signal (z-score),[32],-0.708
same,glycan array binding signal (z-score),[33],-0.716
same,glycan array binding signal (z-score),Gal(b1-4)GlcNAc6P,-0.394
same,glycan array binding signal (z-score),Gal(b1-6)Gal,-0.117
same,glycan array binding signal (z-score),Gal3S(b1-3)GalNAc,-0.969
same,glycan array binding signal (z-score),Gal3S(b1-3)GlcNAc,0.3
same,glycan array binding signal (z-score),[34],-0.673
